# Results of single-concentration screens

Mtb cholesterol medium: 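Growth of Mycobacterium tuberculosis over 4 days (cholesterol / DPPC medium with tyloxapol); the read-out is not stated. Tested at 50 µM. Higher reads as more growth inhibition (inferred: compounds with an IC50 in retests scored well above the rest). About 69,000 compounds were tested under these conditions; 0.54% (about 370) showed 50% or more at least once.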
Mtb glucose medium: 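Phenotypic screen: M. tuberculosis growth, glucose 7H9 medium, 3 days; the read-out is not stated. Compounds at 50 µM. Direction is inferred from retests: higher values go with more growth inhibition. About 69,000 compounds were tested under these conditions; 1.1% (about 760) showed 50% or more at least once.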

Each number is a percent effect as filed. The record does not define 0% and 100%; most values in the screen are far below 50% and negative numbers occur (in some assays of this library far below -100). This is an unselected part of the compounds tested. Two or more numbers in one place are separate tests of the same structure; such repeats can differ widely.

* COc1cc(CNCCn2cc(C)cn2)cc2c1OCCO2 | Mtb cholesterol medium: 13.04%; Mtb glucose medium: 24.13%
* Cc1ccc(-n2nnc(C(=O)NCC3CCCCC3)n2)cc1 | Mtb cholesterol medium: 10.3%; Mtb glucose medium: 8.106% and -4.949%
* O=C(O)C(F)(F)F.O=S(=O)(c1cccs1)N1CCCn2cnc(CN3CCCC3)c2C1 | Mtb cholesterol medium: -21.72%; Mtb glucose medium: -27.71%
* [H][C@]12C[C@H](CNC(=O)c3cccn3C)O[C@@]1([H])CN(C(=O)c1ccco1)C2 | Mtb cholesterol medium: -20.68%; Mtb glucose medium: -36.52%
* Cc1ccc(C(=O)N(C)Cc2cscn2)c(=O)[nH]1 | Mtb cholesterol medium: -3.143%; Mtb glucose medium: -1.62% and -3.05%
* COCc1ccccc1NC(=O)CCNC(=O)c1ccoc1 | Mtb cholesterol medium: 4.761%; Mtb glucose medium: 29.93%
* CC(C)C1CN(c2cccc(C#N)n2)CCCN1CC1CC1 (stereo not given) | Mtb cholesterol medium: 14.36%; Mtb glucose medium: 21.25% and 14.5%
* CC(=O)c1c(C)nn(S(=O)(=O)c2ccc(Cl)cc2)c1C | Mtb cholesterol medium: -9.953%; Mtb glucose medium: 3.911%
* CC1CCCCN1CCNC(=O)c1ccn(-c2ccccc2)n1 (stereo not given) | Mtb cholesterol medium: -42.27%; Mtb glucose medium: -25.23%
* Nc1nc2c(c(NC(=O)Nc3cccc(Cl)c3)n1)CCCC2 | Mtb cholesterol medium: -16.87%; Mtb glucose medium: -23.55% and 2.876%
* Cc1cc(C(F)(F)F)nn1CC(C)C(=O)Nc1ccncc1 (stereo not given) | Mtb cholesterol medium: 12.64%; Mtb glucose medium: 25.4%
* CN(CC(=O)N1CCCC1c1noc(C2CC2)n1)S(C)(=O)=O (stereo not given) | Mtb cholesterol medium: -4.139%; Mtb glucose medium: -14.49%
* CCNc1ccnc(N2Cc3cnn(Cc4ccc(F)cc4)c3C2)n1 | Mtb cholesterol medium: 50.87% and 25.86%; Mtb glucose medium: 43.11%
* CC(=O)N1CCCC(C(=O)N2CCN(Cc3cc(C)on3)CC2)C1 (stereo not given) | Mtb cholesterol medium: -11.58%; Mtb glucose medium: 11.79%
* Cc1cc(CN(CCO)c2ccccc2)on1 | Mtb cholesterol medium: 8.905%; Mtb glucose medium: 13.61%
* CN(CC1CCN(CCO)CC1)CC(O)c1ccc(F)cc1 (stereo not given) | Mtb cholesterol medium: 12.3%; Mtb glucose medium: -9.468%
* COC(=O)c1cccc(C(=O)N2CCCCC2CCn2ccnc2C)c1 (stereo not given) | Mtb cholesterol medium: 1.821%; Mtb glucose medium: -13.55%
* CC(C)COC(=O)N1CCCN(C(C)c2nnc(CC(C)C)o2)CC1 (stereo not given) | Mtb cholesterol medium: 10.03%; Mtb glucose medium: 19.84%
* Cc1cccc(OCc2nnc(SCC3CCCN(C)C3)o2)c1 (stereo not given) | Mtb cholesterol medium: -5.779%; Mtb glucose medium: -14.67%
* [H][C@@]12CCC(=O)N(CCc3ccccc3)[C@]1([H])CCN(S(=O)(=O)CC)C2 | Mtb cholesterol medium: -10.67% and -1.276%; Mtb glucose medium: 3.498%
* COCCOc1ccc(NC(=O)N(C)Cc2ccsc2)cn1 | Mtb cholesterol medium: -10.56%; Mtb glucose medium: 4.667%
* Cc1ccc(-c2cn[nH]c2C2CCCN(c3nccc(N)n3)C2)cc1 (stereo not given) | Mtb cholesterol medium: 37.31%; Mtb glucose medium: 43.96% and 20.44%
* COc1ccc2c(c1)CCCN2C(=O)NC1CCCCNC1=O (stereo not given) | Mtb cholesterol medium: -6.228%; Mtb glucose medium: 7.84% and 1.057%
* CN1CCOCC12CCN(c1nncs1)CC2.O=C(O)C(F)(F)F.O=C(O)C(F)(F)F | Mtb cholesterol medium: -21.03%; Mtb glucose medium: 3.825%
* Cc1ccc(CN[C@@H]2CO[C@H](CNS(=O)(=O)c3ccccc3)[C@H]2O)cc1 | Mtb cholesterol medium: -10.46%; Mtb glucose medium: -26.04% and -3.693%
* COc1cc2c(cc1CNC(=O)Cc1cc(C)on1)OC(C)C2 (stereo not given) | Mtb cholesterol medium: 0.2569%; Mtb glucose medium: 3.989%
* Cc1ccc(C(C(=O)N2CCC(Cc3noc(C)n3)CC2)N(C)C)cc1 (stereo not given) | Mtb cholesterol medium: 17.73%; Mtb glucose medium: 9.469%
* CCN(CC)C(=O)CCc1c(C)nc2cc(O)nn2c1C | Mtb cholesterol medium: -20.2%; Mtb glucose medium: -37.21% and -9.842%
* CCOc1ncc(NC(=O)c2ccco2)c(OCC)n1 | Mtb cholesterol medium: 16.15%; Mtb glucose medium: 16.68% and 2.677%
* O=C(CCc1cc2n(n1)CCCNC2)N1CCN(C2CCCC2)C(=O)C1 | Mtb cholesterol medium: -7.624%; Mtb glucose medium: -16.65%
* CCC(=O)N1CCC(c2ncc(C(=O)Nc3ccccc3)c(C)n2)C1 (stereo not given) | Mtb cholesterol medium: -12.01% and -18.47%; Mtb glucose medium: -13.8%
* COc1cc(S(=O)(=O)N2CCc3ccccc32)cc(C(=O)O)c1OC | Mtb cholesterol medium: 18.67%; Mtb glucose medium: 4.504%
* Cc1cc(C)c2nc(C)c(C(=O)N3CCC(CCN(C)C)CC3)cc2c1 | Mtb cholesterol medium: 10.48% and -1.821%; Mtb glucose medium: 6.532%

For reference, 2 entries once more:

compound,Mtb cholesterol medium,Mtb glucose medium
COc1ccc2c(c1)CCCN2C(=O)NC1CCCCNC1=O (stereo not given),-6.228%,7.84% and 1.057%
CC(=O)N1CCCC(C(=O)N2CCN(Cc3cc(C)on3)CC2)C1 (stereo not given),-11.58%,11.79%

From ChEMBL document CHEMBL3988442, “University of Dundee, Small-Polar-MMV Screening Library” (2021).